Test results from paper PMC10348774.
These are yes or no findings as the source states them, for the method shown. Binding seen in cells or lysates may run through a third protein. Binding calls can cover weak binding; strength is not graded here.

By UniProt entry, the sequences of proteins in these tests, tags left out. Where a name states a change or a piece, a line headed by the entry shows the natural chain unless it says otherwise.
UniProt O14672: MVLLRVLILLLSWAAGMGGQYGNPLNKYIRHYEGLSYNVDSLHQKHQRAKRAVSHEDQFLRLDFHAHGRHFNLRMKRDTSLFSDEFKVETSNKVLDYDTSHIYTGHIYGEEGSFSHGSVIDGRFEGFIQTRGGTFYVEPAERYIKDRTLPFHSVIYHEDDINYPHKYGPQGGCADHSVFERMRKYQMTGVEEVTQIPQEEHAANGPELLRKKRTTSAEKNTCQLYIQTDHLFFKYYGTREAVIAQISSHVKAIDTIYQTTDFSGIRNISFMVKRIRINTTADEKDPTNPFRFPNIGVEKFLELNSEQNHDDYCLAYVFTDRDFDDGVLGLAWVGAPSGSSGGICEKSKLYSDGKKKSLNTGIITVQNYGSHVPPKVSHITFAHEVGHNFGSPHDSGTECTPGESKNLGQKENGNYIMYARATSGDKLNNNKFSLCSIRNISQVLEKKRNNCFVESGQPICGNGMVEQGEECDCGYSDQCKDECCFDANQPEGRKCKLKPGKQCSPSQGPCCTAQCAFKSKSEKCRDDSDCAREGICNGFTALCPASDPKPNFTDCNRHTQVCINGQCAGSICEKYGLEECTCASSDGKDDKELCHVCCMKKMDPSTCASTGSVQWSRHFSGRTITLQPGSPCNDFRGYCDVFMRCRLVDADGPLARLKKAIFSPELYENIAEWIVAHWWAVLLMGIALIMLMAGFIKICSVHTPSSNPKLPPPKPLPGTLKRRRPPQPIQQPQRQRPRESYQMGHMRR
UniProt Q86TM6: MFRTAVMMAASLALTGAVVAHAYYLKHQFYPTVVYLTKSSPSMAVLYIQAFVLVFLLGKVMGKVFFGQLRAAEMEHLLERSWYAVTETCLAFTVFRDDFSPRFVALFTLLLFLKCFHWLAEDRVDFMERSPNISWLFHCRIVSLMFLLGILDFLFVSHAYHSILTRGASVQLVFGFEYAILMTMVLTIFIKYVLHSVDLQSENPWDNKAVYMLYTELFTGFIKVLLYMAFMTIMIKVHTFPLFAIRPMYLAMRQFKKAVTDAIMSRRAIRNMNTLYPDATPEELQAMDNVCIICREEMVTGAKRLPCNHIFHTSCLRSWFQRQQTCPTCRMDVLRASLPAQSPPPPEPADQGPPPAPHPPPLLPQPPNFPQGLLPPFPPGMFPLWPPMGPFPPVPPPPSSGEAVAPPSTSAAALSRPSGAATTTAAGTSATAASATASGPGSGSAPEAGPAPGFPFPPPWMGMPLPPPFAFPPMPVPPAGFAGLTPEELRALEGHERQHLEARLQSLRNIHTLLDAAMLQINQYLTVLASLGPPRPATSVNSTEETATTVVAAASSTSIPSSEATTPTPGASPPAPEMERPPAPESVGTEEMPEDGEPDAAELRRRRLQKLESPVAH

Legend:
ADAM10/N278Q-Flag [1] = biological target: ADAM10/N278Q-Flag (UniProt O14672); assay: proximity ligation; PLA between ADAM10-N278Q-Flag and HRD1 in cells upon Eer I or Eer I + TM treatment; foci counted
ADAM10/N278Q-Flag [2] = biological target: ADAM10/N278Q-Flag (UniProt O14672); assay: co-IP; reciprocal co-IP (anti-Flag IP and IP/IB) of Flag-tagged ADAM10 mutants with endogenous proteins in SK-BR-3 cells; treatments in some panels: Eer I, Eer I + TM, HRD1 silencing

synoviolin 1 (SYVN1, also known as HRD1) (from UniProt Q86TM6 1-617) (enzyme)
binding (ADAM10/N278Q-Flag [1]): binds
binding (ADAM10/N278Q-Flag [2]): binds
